The list shows a part of the results.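 The calls were made as follows: active = dose-dependent thermal stabilisation significant by F-test of dose-response against flat model at 10% FDR; inactive = not significant.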

Chains of the proteins cited; added tags and fusions are not shown. Lines headed by an entry give the natural chain unless they say otherwise; changes in a name come on top.
UniProt Q9NPQ8: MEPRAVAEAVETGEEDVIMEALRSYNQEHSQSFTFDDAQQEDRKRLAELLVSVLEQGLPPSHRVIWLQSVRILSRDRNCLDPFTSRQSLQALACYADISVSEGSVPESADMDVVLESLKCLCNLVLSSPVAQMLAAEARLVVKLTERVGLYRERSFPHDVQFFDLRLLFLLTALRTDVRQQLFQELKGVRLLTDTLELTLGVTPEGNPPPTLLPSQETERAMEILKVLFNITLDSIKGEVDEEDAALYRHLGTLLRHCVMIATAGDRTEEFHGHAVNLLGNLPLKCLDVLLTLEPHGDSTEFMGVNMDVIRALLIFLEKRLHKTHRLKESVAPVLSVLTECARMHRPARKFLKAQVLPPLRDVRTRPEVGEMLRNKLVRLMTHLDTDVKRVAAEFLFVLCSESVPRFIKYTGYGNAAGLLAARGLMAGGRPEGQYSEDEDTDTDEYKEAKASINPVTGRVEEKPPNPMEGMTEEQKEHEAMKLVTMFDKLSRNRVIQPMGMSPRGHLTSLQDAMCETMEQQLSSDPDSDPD
UniProt Q9GZR1: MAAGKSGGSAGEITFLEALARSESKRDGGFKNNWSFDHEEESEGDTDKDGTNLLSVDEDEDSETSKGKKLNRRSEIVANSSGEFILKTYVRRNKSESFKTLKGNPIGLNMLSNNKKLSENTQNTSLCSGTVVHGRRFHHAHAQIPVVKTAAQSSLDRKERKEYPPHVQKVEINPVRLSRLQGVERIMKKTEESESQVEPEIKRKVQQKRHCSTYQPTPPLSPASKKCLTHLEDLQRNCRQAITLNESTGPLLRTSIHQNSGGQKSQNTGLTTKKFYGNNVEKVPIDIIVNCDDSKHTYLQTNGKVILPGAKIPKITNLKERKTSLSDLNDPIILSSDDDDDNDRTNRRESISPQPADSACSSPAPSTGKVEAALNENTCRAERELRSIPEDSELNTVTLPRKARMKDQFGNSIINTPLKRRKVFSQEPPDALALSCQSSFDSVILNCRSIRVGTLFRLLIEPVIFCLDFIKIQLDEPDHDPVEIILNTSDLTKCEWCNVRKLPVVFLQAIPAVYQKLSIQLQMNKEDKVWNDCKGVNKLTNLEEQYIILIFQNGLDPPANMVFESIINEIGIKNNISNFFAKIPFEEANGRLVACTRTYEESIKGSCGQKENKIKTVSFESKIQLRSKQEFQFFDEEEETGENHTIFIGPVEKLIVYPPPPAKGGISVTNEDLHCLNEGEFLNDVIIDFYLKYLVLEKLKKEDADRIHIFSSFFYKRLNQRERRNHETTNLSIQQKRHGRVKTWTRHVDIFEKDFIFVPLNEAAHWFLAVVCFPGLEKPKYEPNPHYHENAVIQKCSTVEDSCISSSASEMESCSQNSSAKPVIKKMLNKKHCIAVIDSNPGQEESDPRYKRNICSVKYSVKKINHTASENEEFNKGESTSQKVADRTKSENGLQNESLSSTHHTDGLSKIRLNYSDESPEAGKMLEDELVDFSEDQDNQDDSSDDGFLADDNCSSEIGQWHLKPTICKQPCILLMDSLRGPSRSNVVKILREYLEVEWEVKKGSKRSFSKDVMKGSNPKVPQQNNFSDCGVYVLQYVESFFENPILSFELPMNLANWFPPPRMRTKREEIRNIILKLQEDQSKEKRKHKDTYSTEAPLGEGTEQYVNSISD
UniProt Q96EE3: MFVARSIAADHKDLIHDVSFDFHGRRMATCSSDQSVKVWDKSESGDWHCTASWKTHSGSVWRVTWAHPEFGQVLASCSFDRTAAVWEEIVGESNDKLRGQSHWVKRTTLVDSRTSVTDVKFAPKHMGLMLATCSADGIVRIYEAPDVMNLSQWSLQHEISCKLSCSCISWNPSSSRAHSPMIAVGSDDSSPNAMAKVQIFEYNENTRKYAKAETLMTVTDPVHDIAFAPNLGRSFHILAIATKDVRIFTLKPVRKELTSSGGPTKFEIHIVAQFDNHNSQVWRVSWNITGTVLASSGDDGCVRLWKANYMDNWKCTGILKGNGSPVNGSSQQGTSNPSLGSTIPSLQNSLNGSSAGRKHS
UniProt P22307: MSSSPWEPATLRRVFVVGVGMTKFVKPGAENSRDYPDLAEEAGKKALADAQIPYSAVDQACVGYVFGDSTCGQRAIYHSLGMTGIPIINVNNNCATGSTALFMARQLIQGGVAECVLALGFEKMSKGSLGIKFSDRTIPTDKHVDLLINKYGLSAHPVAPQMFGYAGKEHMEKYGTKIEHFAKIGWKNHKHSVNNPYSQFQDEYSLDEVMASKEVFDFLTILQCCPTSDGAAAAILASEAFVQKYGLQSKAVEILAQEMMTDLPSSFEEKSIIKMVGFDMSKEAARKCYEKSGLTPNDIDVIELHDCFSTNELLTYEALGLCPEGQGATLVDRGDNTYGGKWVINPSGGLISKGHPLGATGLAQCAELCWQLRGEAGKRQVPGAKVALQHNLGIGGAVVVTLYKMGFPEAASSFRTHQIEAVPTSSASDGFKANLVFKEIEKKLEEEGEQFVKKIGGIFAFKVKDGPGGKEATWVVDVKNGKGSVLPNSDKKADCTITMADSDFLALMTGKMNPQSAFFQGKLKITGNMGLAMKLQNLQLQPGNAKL
UniProt Q9BVS4: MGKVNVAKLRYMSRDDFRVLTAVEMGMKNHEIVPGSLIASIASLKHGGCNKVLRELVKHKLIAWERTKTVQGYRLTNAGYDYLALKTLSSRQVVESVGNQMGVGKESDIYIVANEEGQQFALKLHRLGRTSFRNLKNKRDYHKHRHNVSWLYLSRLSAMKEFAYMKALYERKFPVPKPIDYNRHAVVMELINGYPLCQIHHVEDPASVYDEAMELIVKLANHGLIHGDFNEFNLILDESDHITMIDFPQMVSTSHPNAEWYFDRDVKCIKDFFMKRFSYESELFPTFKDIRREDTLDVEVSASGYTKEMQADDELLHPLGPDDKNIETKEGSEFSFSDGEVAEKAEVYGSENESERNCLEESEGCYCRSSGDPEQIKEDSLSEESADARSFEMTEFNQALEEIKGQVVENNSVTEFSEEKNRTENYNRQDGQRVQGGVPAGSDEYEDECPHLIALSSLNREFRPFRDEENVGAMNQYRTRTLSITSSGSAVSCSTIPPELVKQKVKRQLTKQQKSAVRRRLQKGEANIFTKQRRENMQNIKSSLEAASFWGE
UniProt Q9BRK5: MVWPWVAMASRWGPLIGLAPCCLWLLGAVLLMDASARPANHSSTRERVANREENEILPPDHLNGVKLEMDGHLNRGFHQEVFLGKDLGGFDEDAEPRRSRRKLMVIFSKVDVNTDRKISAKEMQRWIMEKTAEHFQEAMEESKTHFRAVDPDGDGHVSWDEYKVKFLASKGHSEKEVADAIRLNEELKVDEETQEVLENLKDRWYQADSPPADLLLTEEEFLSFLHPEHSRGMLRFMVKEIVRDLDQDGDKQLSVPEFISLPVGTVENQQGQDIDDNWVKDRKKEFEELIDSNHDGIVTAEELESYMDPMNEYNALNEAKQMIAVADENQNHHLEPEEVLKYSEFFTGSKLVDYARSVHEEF
UniProt Q14684: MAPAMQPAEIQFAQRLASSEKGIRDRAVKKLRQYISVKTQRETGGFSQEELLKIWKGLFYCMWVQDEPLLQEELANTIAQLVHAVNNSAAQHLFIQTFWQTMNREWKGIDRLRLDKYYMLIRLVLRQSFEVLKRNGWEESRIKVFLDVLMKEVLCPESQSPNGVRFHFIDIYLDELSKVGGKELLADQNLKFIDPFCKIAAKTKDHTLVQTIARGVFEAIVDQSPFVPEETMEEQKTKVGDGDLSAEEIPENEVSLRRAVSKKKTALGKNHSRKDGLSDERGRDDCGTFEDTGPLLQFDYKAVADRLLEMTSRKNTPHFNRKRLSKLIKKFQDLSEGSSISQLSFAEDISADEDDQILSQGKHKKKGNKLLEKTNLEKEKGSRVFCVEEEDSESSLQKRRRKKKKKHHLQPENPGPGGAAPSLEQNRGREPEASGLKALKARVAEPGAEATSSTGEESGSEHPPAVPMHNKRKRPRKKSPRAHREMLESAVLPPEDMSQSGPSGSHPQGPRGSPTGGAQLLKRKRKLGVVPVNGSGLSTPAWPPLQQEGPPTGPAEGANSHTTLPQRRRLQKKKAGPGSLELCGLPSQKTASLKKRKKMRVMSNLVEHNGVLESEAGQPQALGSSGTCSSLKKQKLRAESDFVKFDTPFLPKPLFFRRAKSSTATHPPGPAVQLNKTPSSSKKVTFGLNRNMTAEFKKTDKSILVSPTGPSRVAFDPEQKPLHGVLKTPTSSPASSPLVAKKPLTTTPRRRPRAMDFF
UniProt P26447: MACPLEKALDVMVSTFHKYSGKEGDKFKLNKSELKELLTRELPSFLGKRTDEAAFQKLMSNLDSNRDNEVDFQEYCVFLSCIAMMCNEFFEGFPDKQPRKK
UniProt P50454: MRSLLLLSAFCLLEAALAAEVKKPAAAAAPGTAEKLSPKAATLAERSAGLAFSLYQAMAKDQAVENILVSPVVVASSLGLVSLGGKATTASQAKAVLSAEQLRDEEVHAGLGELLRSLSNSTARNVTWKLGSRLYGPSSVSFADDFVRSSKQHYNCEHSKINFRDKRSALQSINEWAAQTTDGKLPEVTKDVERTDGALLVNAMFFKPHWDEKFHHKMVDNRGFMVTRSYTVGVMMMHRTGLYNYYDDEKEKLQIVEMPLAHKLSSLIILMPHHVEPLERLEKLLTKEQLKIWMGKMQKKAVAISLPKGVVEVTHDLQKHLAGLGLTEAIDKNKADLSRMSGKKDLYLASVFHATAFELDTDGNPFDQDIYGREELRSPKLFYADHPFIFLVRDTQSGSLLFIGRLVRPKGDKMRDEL
UniProt P35249, whole entry: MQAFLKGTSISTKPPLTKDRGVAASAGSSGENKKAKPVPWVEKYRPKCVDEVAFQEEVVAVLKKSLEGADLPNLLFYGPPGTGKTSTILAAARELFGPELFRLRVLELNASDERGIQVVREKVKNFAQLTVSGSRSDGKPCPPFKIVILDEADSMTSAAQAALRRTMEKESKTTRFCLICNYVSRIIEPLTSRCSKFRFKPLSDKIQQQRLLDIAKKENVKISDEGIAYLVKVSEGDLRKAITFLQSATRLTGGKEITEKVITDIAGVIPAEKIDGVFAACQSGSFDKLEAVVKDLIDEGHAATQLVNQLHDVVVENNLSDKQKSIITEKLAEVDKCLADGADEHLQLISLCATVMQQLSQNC
UniProt Q4ADV7: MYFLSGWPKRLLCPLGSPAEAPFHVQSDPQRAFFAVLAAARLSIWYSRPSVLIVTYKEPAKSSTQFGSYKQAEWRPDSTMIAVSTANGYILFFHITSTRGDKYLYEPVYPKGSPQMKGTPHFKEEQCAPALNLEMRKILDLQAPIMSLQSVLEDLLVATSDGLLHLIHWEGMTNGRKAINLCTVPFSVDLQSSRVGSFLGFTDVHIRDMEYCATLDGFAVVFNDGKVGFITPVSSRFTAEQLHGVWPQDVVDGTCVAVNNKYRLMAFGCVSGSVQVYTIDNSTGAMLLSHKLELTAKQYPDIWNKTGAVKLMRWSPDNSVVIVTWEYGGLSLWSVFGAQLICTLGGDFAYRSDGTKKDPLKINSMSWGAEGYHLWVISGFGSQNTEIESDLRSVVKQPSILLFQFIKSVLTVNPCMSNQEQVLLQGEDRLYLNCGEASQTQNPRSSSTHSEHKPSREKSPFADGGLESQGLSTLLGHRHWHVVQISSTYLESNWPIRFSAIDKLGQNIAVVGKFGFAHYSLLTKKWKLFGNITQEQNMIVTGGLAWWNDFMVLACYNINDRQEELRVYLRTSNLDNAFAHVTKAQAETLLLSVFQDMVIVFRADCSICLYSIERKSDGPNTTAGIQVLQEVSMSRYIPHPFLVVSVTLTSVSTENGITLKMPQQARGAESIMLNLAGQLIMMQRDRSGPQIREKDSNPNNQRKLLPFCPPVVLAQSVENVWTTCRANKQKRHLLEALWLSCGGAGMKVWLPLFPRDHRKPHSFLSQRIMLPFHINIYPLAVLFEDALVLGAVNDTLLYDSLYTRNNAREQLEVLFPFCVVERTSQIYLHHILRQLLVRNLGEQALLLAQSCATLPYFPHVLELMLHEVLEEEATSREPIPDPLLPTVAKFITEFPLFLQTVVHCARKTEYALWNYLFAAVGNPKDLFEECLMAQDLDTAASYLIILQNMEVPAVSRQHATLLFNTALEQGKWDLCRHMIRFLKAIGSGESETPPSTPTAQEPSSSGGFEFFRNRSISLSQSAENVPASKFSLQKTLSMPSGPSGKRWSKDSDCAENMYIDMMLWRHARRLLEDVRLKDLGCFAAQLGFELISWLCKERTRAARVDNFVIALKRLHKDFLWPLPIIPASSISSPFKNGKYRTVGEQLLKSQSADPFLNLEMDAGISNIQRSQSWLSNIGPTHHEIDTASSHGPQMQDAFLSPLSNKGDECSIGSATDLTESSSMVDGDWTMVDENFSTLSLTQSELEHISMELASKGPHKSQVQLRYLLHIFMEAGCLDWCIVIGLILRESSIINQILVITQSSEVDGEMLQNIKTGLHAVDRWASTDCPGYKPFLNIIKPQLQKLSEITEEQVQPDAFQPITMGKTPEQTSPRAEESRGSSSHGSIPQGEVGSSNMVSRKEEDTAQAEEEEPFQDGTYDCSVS

Compound in the experiment: Nc1nc2c(ncn2[C@@H]2O[C@H](COP(=O)(O)OP(=O)(O)OP(=O)(O)O)[C@@H](O)[C@H]2O)c(=O)[nH]1
The experiment is described as follows: dose-dependent thermal stabilisation call (2D-TPP, DLPTP, 10% FDR) (binary (1 = stabilised)); higher = stabilised by the compound. Conditions: system: Jurkat gel-filtered lysate; concentration range 1-500 µM.
For the target RRBP1 (UniProt Q9P2E9), the “dose-dependent thermal stabilisation call” value was inactive: 0.

In the case of ROCK2 (UniProt O75116), the “dose-dependent thermal stabilisation call” value was inactive: 0.

For the target RIC8A (UniProt Q9NPQ8), the “dose-dependent thermal stabilisation call” value was active: 1.

Regarding SELENOF (UniProt O60613), the “dose-dependent thermal stabilisation call” value was inactive: 0.

SENP6 (UniProt Q9GZR1): the “dose-dependent thermal stabilisation call” value was inactive: 0.

SEH1L (UniProt Q96EE3): the “dose-dependent thermal stabilisation call” value was inactive: 0.

On to SCP2 (UniProt P22307), for which the “dose-dependent thermal stabilisation call” value was inactive: 0.

Take RIOK2 (UniProt Q9BVS4): the “dose-dependent thermal stabilisation call” value is inactive: 0.

On to SDF4 (UniProt Q9BRK5), for which the “dose-dependent thermal stabilisation call” value was inactive: 0.

RNF141 (UniProt Q8WVD5): the “dose-dependent thermal stabilisation call” value is inactive: 0.

With RPS8 (UniProt P62241), the “dose-dependent thermal stabilisation call” value was inactive: 0.

Take SCAF8 (UniProt Q9UPN6): the “dose-dependent thermal stabilisation call” value is inactive: 0.

For RRP1B (UniProt Q14684), the “dose-dependent thermal stabilisation call” value was inactive: 0.

For the target RNF123 (UniProt Q5XPI4), the “dose-dependent thermal stabilisation call” value was active: 1.

For S100A4 (UniProt P26447), the “dose-dependent thermal stabilisation call” value is inactive: 0.

As for RNF31 (UniProt Q96EP0), the “dose-dependent thermal stabilisation call” value is inactive: 0.

SAMSN1 (UniProt Q9NSI8): the “dose-dependent thermal stabilisation call” value was inactive: 0.

On to RPUSD2 (UniProt Q8IZ73), for which the “dose-dependent thermal stabilisation call” value is inactive: 0.

For the target RNF126 (UniProt Q9BV68), the “dose-dependent thermal stabilisation call” value is inactive: 0.

Consider RP2 (UniProt O75695), for which the “dose-dependent thermal stabilisation call” value is active: 1.

With RIC8B (UniProt Q9NVN3), the “dose-dependent thermal stabilisation call” value is inactive: 0.

RRM1 (UniProt P23921): the “dose-dependent thermal stabilisation call” value was inactive: 0.

SERPINH1 (UniProt P50454): the “dose-dependent thermal stabilisation call” value was inactive: 0.

Turning to RPS2 (UniProt P15880), the “dose-dependent thermal stabilisation call” value was inactive: 0.

Consider RFC4 (UniProt P35249), for which the “dose-dependent thermal stabilisation call” value was active: 1.

Take SF3B1 (UniProt O75533): the “dose-dependent thermal stabilisation call” value is inactive: 0.

In the case of RIC1 (UniProt Q4ADV7), the “dose-dependent thermal stabilisation call” value is inactive: 0.

SDCBP (UniProt O00560): the “dose-dependent thermal stabilisation call” value was inactive: 0.

Take SEPTIN9 (UniProt Q9UHD8): the “dose-dependent thermal stabilisation call” value is inactive: 0.

In the case of RNF213 (UniProt Q63HN8), the “dose-dependent thermal stabilisation call” value was inactive: 0.

RPL27A (UniProt P46776): the “dose-dependent thermal stabilisation call” value was inactive: 0.

RNF214 (UniProt Q8ND24): the “dose-dependent thermal stabilisation call” value was inactive: 0.

Take RMI2 (UniProt Q96E14): the “dose-dependent thermal stabilisation call” value was inactive: 0.

REL (UniProt Q04864): the “dose-dependent thermal stabilisation call” value is inactive: 0.

As for SF3B5 (UniProt Q9BWJ5), the “dose-dependent thermal stabilisation call” value was inactive: 0.

In the case of RNF7 (UniProt Q9UBF6), the “dose-dependent thermal stabilisation call” value is inactive: 0.

For the origin of these results see the supplement of paper PMC7666118.
